From article PMC7101311 (Nature Communications, 2020)
These are yes or no findings as the source states them, for the method shown. Binding can be weak; no strength is given.

Chains of the proteins cited; added tags and fusions are not shown. Lines headed by an entry give the natural chain unless they say otherwise; changes in a name come on top.
UniProt Q9V2F4: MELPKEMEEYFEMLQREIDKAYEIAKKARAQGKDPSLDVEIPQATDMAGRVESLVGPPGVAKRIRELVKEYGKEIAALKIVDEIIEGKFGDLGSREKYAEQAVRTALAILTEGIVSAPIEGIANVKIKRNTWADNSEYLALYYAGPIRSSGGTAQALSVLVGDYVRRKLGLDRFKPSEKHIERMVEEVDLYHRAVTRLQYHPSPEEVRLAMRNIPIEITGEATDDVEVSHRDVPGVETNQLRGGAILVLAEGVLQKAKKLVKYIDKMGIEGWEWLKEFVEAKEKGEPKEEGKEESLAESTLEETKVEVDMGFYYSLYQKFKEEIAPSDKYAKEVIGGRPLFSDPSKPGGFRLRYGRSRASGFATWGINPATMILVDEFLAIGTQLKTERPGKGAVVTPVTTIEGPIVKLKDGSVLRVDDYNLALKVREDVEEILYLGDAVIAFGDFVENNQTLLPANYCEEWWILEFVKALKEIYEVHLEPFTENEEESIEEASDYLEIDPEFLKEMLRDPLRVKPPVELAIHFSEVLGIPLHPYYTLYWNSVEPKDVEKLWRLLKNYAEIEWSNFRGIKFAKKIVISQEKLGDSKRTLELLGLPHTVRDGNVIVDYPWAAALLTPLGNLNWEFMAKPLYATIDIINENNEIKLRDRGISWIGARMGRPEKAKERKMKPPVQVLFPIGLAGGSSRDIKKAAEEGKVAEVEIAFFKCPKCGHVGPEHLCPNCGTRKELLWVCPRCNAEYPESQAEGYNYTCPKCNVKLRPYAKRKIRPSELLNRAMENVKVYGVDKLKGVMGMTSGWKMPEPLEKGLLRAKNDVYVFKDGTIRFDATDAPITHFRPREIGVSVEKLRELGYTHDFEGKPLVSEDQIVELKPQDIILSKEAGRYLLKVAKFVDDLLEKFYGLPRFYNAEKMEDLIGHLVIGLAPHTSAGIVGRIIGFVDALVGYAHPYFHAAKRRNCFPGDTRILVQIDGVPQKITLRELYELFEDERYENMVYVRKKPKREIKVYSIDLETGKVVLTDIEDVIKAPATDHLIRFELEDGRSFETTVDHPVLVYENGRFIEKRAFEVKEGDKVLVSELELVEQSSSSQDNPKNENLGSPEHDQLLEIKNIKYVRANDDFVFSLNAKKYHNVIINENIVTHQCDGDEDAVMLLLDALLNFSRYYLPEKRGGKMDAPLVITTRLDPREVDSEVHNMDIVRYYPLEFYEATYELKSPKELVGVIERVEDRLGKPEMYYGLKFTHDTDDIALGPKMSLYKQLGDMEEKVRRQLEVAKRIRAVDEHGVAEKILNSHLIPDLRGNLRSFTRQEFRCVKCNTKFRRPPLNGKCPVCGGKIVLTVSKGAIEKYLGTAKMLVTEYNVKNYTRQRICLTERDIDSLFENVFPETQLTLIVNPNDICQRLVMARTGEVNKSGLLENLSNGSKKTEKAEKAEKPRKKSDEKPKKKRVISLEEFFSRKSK

Biological target: PolD DP2 subunit from Pyrococcus abyssi (Pyrococcus abyssi) (UniProt Q9V2F4)
Test: cryo-EM structure; 0.4 µM PolD (DP1 H451A), 1.2 µM PCNA, 0.7 µM primed DNA duplex (18-mer primer, 7-nt overhang), 0.1 mM dAMPCPP, buffer F (20 mM Na-Hepes pH 8, 0.01 mM NaCl, 2 mM Mg-acetate), 20 min at 4 °C; single-particle cryo-EM, 3.77 Å; both purified

binding: binds
B1: PCNA (proliferative cell nuclear antigen) from Pyrococcus abyssi (natural protein, UniProt Q9UYX8 1-249, looked up)
chain: MPFEIVFEGAKEFAQLIETASRLIDEAAFKVTEEGISMRAMDPSRVVLIDLNLPASIFSKYEVDGEETIGVNMDHLKKVLKRGKAKETLILRKGEENFLEISLQGTATRTFKLPLIDVEEIEVDLPELPFTAKVVILGDVIKEAVKDASLVSDSMKFIAKENEFTMRAEGETQEVEVKLTLEDEGLLDIEVQEETKSAYGISYLSDMVKGLGKADEVTIKFGNEMPMQMEYYIRDEGRLIFLLAPRVEE
notes: PCNA, Pyrococcus abyssi; open reading frame optimized and synthesized, in pET28-a(+) with a thrombin-cleavable N-terminal 6xHis tag; PCNA as used in cryo-EM, crystallisation, BLI (analyte) and primer extension; also called sliding clamp; source: E. coli BL21-CodonPlus (DE3)-RIPL, purified (heat step, HisTrap, heparin, size exclusion)
